According to the supplement of paper PMC12819154, “High-throughput peptide-centric local stability assay extends protein–ligand identification to membrane proteins, tissues and bacteria” (Nature Structural & Molecular Biology, 2025):
This is one part of the list. Small differences around the control level are noise.

By UniProt entry, the sequences of proteins in these tests, tags left out. Where a name states a change or a piece, a line headed by the entry shows the natural chain unless it says otherwise.
UniProt P35340: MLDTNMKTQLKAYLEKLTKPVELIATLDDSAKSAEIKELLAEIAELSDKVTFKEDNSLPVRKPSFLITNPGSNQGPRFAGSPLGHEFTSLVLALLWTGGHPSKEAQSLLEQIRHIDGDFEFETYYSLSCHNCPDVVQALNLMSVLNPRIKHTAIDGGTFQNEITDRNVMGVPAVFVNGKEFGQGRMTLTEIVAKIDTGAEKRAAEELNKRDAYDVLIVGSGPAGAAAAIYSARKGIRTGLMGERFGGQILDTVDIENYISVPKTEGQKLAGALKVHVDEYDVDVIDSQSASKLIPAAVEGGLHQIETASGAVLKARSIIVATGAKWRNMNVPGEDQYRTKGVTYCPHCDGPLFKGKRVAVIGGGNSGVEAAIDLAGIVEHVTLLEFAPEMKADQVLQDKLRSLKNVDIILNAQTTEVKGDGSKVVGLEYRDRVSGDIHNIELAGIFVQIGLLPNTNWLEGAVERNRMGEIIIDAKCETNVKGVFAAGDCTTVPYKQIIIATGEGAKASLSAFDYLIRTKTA
UniProt P39332: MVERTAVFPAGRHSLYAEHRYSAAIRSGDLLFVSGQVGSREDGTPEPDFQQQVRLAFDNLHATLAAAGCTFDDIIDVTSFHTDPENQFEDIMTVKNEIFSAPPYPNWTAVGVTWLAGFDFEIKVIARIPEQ
UniProt P43672: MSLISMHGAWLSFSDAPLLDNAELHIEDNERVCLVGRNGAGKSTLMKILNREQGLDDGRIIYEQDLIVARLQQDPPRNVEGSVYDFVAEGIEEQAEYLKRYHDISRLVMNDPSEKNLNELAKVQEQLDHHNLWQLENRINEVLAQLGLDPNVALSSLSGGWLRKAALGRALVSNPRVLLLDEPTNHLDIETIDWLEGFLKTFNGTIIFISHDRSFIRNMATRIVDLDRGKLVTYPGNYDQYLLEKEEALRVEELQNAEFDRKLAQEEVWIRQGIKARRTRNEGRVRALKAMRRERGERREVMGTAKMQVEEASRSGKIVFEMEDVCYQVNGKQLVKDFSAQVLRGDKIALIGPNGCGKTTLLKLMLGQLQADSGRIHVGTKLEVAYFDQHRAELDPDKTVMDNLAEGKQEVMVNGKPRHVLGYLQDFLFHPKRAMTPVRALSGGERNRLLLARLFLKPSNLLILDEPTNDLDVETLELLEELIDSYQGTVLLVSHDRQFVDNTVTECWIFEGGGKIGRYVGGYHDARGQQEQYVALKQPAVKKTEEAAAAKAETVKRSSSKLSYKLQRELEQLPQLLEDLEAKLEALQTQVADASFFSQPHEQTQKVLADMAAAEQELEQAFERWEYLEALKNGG
UniProt P38521: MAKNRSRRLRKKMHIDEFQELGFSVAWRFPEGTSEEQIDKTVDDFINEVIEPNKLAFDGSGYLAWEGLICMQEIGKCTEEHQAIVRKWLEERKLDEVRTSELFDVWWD
UniProt P33919: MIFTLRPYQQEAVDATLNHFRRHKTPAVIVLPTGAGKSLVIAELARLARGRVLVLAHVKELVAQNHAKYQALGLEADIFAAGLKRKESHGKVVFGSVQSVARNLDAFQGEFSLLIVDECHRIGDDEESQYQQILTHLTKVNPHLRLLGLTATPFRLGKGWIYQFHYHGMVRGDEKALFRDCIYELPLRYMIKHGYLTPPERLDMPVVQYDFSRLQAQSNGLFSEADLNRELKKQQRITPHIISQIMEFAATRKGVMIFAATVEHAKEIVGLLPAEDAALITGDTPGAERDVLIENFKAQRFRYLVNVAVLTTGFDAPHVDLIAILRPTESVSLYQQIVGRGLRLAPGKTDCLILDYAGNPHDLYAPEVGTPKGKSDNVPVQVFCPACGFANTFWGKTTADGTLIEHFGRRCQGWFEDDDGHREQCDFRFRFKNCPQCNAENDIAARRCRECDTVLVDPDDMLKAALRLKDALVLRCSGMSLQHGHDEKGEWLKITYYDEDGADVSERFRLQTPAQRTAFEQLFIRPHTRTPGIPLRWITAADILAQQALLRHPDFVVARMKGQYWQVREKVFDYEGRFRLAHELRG
UniProt P37195: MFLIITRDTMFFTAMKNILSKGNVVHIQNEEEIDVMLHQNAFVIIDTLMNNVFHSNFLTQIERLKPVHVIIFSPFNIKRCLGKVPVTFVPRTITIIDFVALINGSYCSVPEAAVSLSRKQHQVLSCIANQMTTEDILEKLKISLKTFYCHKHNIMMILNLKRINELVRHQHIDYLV
UniProt P37648: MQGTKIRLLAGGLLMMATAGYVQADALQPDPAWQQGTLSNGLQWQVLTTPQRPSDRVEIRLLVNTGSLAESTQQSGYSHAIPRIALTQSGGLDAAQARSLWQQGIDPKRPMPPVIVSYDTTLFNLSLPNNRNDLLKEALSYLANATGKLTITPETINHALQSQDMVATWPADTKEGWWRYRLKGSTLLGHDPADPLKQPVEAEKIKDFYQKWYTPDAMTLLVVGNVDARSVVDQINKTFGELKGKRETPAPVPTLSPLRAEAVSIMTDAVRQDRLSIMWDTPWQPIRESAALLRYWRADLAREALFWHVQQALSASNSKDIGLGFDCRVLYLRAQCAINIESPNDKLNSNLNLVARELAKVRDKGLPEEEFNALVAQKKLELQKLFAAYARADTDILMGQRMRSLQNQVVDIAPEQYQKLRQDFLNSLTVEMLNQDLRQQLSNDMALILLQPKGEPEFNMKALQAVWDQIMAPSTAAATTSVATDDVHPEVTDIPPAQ
UniProt P39396: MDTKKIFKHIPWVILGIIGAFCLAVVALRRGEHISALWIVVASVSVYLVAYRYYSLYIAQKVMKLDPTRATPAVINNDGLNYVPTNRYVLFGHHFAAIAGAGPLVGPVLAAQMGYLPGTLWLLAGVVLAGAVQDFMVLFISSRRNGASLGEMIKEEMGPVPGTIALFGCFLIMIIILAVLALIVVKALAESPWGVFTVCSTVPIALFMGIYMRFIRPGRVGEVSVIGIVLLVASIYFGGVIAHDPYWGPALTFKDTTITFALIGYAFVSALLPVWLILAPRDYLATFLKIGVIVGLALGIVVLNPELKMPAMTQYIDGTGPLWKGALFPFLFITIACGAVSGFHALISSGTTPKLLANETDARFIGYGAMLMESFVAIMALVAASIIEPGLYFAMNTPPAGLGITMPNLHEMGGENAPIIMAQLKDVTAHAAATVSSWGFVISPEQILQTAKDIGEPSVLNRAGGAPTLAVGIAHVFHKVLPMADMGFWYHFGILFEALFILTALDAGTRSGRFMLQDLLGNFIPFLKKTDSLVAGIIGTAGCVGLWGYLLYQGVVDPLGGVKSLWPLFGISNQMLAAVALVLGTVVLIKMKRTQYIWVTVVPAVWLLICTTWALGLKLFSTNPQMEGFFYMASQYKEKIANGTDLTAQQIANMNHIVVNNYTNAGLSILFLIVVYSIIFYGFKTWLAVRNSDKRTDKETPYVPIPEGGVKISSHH
UniProt P39298: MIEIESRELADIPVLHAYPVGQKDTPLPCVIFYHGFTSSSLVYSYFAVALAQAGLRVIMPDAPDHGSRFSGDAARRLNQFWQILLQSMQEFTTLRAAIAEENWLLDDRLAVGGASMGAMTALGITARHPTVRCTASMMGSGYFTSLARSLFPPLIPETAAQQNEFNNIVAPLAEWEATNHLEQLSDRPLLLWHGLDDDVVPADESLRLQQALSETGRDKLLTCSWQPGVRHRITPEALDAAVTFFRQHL
UniProt P37095: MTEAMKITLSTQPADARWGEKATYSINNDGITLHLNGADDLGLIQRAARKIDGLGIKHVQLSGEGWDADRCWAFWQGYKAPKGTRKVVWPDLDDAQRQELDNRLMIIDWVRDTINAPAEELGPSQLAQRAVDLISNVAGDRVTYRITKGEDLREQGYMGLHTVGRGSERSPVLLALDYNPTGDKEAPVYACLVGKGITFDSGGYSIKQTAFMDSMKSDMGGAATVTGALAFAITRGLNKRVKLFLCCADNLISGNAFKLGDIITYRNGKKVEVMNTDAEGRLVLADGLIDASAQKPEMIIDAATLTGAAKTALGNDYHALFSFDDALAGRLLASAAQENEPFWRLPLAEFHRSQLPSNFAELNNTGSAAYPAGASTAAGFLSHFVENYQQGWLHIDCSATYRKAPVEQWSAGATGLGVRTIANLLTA
UniProt P37188: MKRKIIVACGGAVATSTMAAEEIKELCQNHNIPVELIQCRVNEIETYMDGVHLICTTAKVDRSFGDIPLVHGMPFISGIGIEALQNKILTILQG
UniProt P45545: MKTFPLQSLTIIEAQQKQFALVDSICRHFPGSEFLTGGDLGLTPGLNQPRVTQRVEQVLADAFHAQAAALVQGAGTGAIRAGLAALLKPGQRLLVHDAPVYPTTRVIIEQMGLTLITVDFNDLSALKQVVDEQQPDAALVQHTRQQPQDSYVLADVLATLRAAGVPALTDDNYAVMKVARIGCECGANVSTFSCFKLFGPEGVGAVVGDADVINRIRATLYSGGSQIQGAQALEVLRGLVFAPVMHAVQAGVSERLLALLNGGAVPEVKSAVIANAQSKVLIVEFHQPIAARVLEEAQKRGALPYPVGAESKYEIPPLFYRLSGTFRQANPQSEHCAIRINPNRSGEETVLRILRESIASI
UniProt P39172: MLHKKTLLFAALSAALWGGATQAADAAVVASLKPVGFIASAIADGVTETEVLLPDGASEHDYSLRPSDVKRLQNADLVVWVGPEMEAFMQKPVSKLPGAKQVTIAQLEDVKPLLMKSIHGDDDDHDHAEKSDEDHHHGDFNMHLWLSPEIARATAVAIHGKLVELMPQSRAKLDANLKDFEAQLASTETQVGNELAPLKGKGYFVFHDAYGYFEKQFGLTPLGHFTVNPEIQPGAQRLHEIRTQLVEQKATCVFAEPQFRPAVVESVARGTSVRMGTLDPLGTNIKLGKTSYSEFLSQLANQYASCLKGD
UniProt P37664: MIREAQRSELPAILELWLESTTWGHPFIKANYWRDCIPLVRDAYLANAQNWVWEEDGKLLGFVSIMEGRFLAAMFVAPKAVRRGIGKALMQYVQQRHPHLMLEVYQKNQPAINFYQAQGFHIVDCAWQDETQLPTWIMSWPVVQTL
UniProt P39173: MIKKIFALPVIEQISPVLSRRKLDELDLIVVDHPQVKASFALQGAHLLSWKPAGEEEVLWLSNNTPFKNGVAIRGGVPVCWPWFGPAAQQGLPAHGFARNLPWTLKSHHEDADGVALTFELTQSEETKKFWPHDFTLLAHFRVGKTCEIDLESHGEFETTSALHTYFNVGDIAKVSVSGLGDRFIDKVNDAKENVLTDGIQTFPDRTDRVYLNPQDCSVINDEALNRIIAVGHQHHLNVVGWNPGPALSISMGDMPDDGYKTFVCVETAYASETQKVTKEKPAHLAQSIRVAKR
UniProt P39187: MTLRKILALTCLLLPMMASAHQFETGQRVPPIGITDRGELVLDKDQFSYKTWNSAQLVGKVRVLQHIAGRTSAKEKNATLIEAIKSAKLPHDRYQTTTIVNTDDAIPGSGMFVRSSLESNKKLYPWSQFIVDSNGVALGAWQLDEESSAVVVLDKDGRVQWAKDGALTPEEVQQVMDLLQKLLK
UniProt P37637: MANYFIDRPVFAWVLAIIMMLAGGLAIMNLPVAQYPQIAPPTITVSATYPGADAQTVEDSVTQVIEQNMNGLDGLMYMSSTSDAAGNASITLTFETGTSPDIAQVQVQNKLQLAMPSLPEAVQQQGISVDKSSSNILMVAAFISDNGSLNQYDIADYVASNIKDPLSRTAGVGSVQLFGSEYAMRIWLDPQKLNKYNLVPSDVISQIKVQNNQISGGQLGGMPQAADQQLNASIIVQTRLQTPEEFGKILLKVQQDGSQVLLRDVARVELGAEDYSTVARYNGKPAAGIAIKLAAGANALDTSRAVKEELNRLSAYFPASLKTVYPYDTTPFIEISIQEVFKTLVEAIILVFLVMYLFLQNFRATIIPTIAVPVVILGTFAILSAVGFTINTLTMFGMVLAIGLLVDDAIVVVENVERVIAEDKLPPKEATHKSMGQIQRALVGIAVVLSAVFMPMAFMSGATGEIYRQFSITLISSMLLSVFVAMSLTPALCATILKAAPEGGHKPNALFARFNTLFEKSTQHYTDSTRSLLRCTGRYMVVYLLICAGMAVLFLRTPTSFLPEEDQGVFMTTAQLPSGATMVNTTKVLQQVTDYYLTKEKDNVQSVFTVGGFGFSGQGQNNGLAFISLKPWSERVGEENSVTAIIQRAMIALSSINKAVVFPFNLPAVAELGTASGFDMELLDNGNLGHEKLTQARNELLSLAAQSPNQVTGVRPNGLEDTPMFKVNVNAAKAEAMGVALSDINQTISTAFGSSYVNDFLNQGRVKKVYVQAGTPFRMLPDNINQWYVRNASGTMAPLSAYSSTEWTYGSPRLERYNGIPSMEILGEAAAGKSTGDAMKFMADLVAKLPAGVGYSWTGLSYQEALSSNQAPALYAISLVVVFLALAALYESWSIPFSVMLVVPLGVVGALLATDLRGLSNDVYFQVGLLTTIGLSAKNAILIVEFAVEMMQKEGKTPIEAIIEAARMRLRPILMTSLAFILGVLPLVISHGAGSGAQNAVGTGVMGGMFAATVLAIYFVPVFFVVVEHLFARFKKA

Compound: CC1(C)S[C@@H]2[C@H](NC(=O)[C@H](N)c3ccccc3)C(=O)N2[C@H]1C(=O)O [ampicillin]
Assay: log2 fold change of tryptic peptide abundance, ligand vs vehicle (limited proteolysis) (log2 ratio); higher = more trypsin-susceptible (destabilized)
Details: ligand concentration: 10 uM; sample: E. coli crude lysate

Target	log2 fold change
UniProt P45463 (peptide sequence: CYEHALEILTQYQR, peptide start residue: 69)	0.462
UniProt P35340 (peptide sequence: HTAIDGGTFQNEITDR, peptide start residue: 151)	0.298
UniProt P39332 (peptide sequence: HSLYAEHR, peptide start residue: 13)	0.0288
UniProt P43672 (peptide sequence: IHVGTKLEVAYFDQHR, peptide start residue: 376)	-0.948
UniProt P38521 (peptide sequence: CTEEHQAIVRK, peptide start residue: 77)	0.141
UniProt P33919 (peptide sequence: GWIYQFHYHGMVR, peptide start residue: 159)	0.468
UniProt P33650 (peptide sequence: LGCPVIPLVSTR, peptide start residue: 141)	-0.638
UniProt P37195 (peptide sequence: CLGKVPVTFVPR, peptide start residue: 80)	-0.277
UniProt P39199 (peptide sequence: SPIGELINNK, peptide start residue: 115)	-0.177
UniProt P37648 (peptide sequence: DIGLGFDCR, peptide start residue: 320)	-0.233
UniProt P39396 (peptide sequence: DIGEPSVLNR, peptide start residue: 453)	-0.0507
UniProt P38097 (peptide sequence: AAMSLDEQWR, peptide start residue: 855)	-0.358
UniProt P39298 (peptide sequence: LQQALSETGRDK, peptide start residue: 208)	-0.219
UniProt P37095 (peptide sequence: LMIIDWVR, peptide start residue: 104)	-0.425
UniProt P37188 (peptide sequence: VNEIETYMDGVHLICTTAK, peptide start residue: 41)	0.177
UniProt P37595 (peptide sequence: AGAVAGVSHLRNPVLAAR, peptide start residue: 94)	-0.155
UniProt P45545 (peptide sequence: SAVIANAQSK, peptide start residue: 270)	-0.079
UniProt P39172 (peptide sequence: SDEDHHHGDFNMHLWLSPEIAR, peptide start residue: 131)	0.39
UniProt P37664 (peptide sequence: HPHLMLEVYQK, peptide start residue: 97)	0.596
UniProt P38684 (peptide sequence: ERSTVGIILVTGR, peptide start residue: 70)	0.481
UniProt P37773 (peptide sequence: KLTTDASEWEVLLDGEK, peptide start residue: 251)	-0.304
UniProt P39173 (peptide sequence: KLDELDLIVVDHPQVK, peptide start residue: 22)	0.435
UniProt P39187 (peptide sequence: VLQHIAGR, peptide start residue: 63)	-0.157
UniProt P37765 (peptide sequence: ESAEQICRVLAYYKPEGELCTR, peptide start residue: 61)	0.187
UniProt P40719 (peptide sequence: LTLNAHSIK, peptide start residue: 337)	0.133
UniProt P37637 (peptide sequence: KVYVQAGTPFR, peptide start residue: 768)	-0.33

A stretch from further up:
Target	log2 fold change
UniProt P38097 (peptide sequence: AAMSLDEQWR, peptide start residue: 855)	-0.358
UniProt P39298 (peptide sequence: LQQALSETGRDK, peptide start residue: 208)	-0.219
